Reference: ChEMBL document CHEMBL4339225, “Self-assembling Releasable Thiocolchicine-Diphenylbutenylaniline Conjugates” (ACS Med Chem Lett, 2019)

Assays:
Type in all cases: functional
[1] = test system: HeLa; assay: Antiproliferative activity against human HeLa cells assessed as reduction in cell number incubated for 72 hrs
[2] = test system: HepG2; assay: Antiproliferative activity against human HepG2 cells assessed as reduction in cell number incubated for 72 hrs; settings: HepG2, 72 h
[3] = test system: MCF7; assay: Antiproliferative activity against human MCF7 cells assessed as reduction in cell number incubated for 72 hrs; settings: MCF7, 72 h

Compound: COc1cc2c(c(OC)c1OC)-c1ccc(SC)c(=O)cc1[C@@H](N)CC2
- GI50 [1]: 14 nM
- GI50 [2]: 18 nM
- GI50 [3]: 18 nM
